Out of some 340,000 compounds screened, about 6,200 (1.8%) were called active. The shares of active, inactive and inconclusive entries below differ from those in the screen. The call rests on the fitted dose curve; in most records, active means well fitted activation curve with a large enough effect; inconclusive means small, poorly fitted or top-dose-only effect; inactive means no such curve, though single readings can be large or run the other way. Potencies of inconclusive entries are doubtful fits and often do not repeat.
assay: A quantitative high throughput screen for small molecules that induce DNA re-replication in SW480 colon adenocarcinoma cells.; further: nearly all actives have a fitted effect of over 55% in size; details: Hoechst DNA content imaging, 48 h; series mostly up to 46.1 µM
Outline: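 Hoechst fluorescence of nuclei (405 nm excitation, 500-530 nm emission) measured by plate-scanning imager after 48 hr compound exposure at 37 C; re-replication scored as increased number of nuclei with elevated intensity.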
Potency means the concentration at half of the fitted maximal effect.

| Structure (SMILES) | Potency |
| --- | --- |
| CCCN1CCN(C2CCCCC2NS(=O)(=O)c2ccccc2)CC1 (centres undefined) | inconclusive: 7.94 µM [activator, partial curve, poor fit] |
| Cc1ccc(C(=O)NN2C(=O)c3ccc(S(=O)(=O)c4ccc(C(=O)O)cc4)cc3C2=O)cc1 | inconclusive: 29.1 µM [activator, partial curve, poor fit] |
| O=C1/C(=C/c2ccncc2)Oc2cc(OS(=O)(=O)c3ccccc3)ccc21 | inconclusive: 29.1 µM [activator, single point] |
| CN(C(=O)COC(=O)/C=C/c1ccc(F)cc1)c1c(N)n(Cc2ccccc2)c(=O)[nH]c1=O | inactive |
| O=S1(=O)N=C(N/N=C/c2ccc(Br)o2)c2ccccc21 | inactive |
| COc1ccc(O)c(C(=O)CC(=O)c2cccnc2)c1 | inactive |
| CCNC(=O)C(=O)Nc1ccc2c(c1)N(S(=O)(=O)c1cccs1)CCC2 | inconclusive: 20.6 µM [activator, single point] |
| c1ccc2c(c1)CCN(c1ncnc3c1[nH]c1ccccc13)C2 | inconclusive: 16.4 µM [activator, single point] |
| O=C(CC(Sc1ccc(Br)cc1)C(=O)O)c1ccc(F)cc1 (centres undefined) | inconclusive: 29.1 µM [activator, single point] |
| CCC(C(=O)Nc1ccc2c(c1)OCCO2)n1c(=O)[nH]c2ccccc2c1=O (centres undefined) | inconclusive: 0.092 µM [activator, full curve, poor fit] |
| COc1ccc(NS(=O)(=O)c2cc(NC(=O)c3cccc(OCc4c(C)noc4C)c3)ccc2OC)cc1 | inconclusive: 23.1 µM [activator, partial curve, poor fit] |
| COc1ccc(-c2noc(CN(C)C(=O)CCN3C(=O)[C@H]4CC=CC[C@H]4C3=O)n2)cc1 | inconclusive: 2.06 µM [activator, partial curve] |
| CC(=O)NCCNc1nc2c(-c3cccc(C)c3)nnn2c2ccccc12 | inconclusive: 20.6 µM [activator, partial curve, poor fit] |
| Nc1ccc(O)cc1C(=O)OCC(=O)c1ccc(C2CCCCC2)cc1 | active: 9.2 µM |
| COc1ccc(/C=C/c2nnc(NC(=O)COc3ccc(C)cc3)s2)cc1 | inconclusive: 25.9 µM [activator, partial curve, poor fit] |
| N#Cc1c(N)nc2c(c1-c1ccccc1)CCC2 | inconclusive: 18.4 µM [activator, single point] |
| CCOc1ccc(CN(C)CC(=O)Nc2ccc([N+](=O)[O-])cc2Cl)cc1 | inactive |
| Cc1ccc(C(=O)c2cnc3ccccc3c2-c2ccccc2)cc1 | inactive |
| Cn1cc(CN2CCC(C(=O)N3CCCC3)CC2)c(-c2ccccc2F)n1 | inconclusive: 0.0052 µM [activator, full curve, poor fit] |
| CN1C2CCC1/C(=C\c1ccc(F)cc1)C(=O)/C2=C/c1ccc(F)cc1 | inconclusive: 29.1 µM [activator, single point] |
| Cc1[nH]n(C2=NCCS2)c(=O)c1N=Nc1cccc(C(F)(F)F)c1 | inconclusive: 2.59 µM [activator, full curve] |
| Cc1ccc(-c2cc([C@H]3[C@@H]4C=CCC[C@@]4(C)C(=O)N3Cc3ccccc3)ccc2F)cc1 | inconclusive: 0.164 µM [activator, full curve, poor fit] |

Already shown: 3 of the compounds above.

| Structure (SMILES) | Potency |
| --- | --- |
| Cc1ccc(C(=O)c2cnc3ccccc3c2-c2ccccc2)cc1 | inactive |
| Cn1cc(CN2CCC(C(=O)N3CCCC3)CC2)c(-c2ccccc2F)n1 | inconclusive: 0.0052 µM [activator, full curve, poor fit] |
| CN1C2CCC1/C(=C\c1ccc(F)cc1)C(=O)/C2=C/c1ccc(F)cc1 | inconclusive: 29.1 µM [activator, single point] |

Further results follow:

| Structure (SMILES) | Potency |
| --- | --- |
| CC1(C)CCC[C@]2(C)C(CS(=O)c3ccccc3)=C(C=O)CC[C@@H]12 (some centres undefined) | inconclusive: 20.6 µM [activator, single point] |
| O=C(CCNC(=O)c1ccccc1Cl)Nc1cc(C(F)(F)F)ccc1N1CCCC1 | inconclusive: 32.6 µM [activator, partial curve, poor fit] |
| C=C(C)CNC(=S)N/N=C(\C)c1ccc(Cl)s1 | inconclusive: 3.26 µM [activator, partial curve, poor fit] |
| O=C(c1ccc(Cl)cc1)C(Cn1cncn1)C(Sc1ccccc1)c1ccccc1 (centres undefined) | inconclusive: 29.1 µM [activator, single point] |
| COc1ccc(-n2cnc3scc(-c4ccc(OC)c(OC)c4)c3c2=O)cc1 | inconclusive: 0.58 µM [activator, full curve, poor fit] |
| Cc1oc(C)c(C(=O)O)c1COc1ccc(C(=O)O)cc1 | inconclusive: 35.5 µM [activator, single point] |
| CCOc1cc(/C=C/c2nc3ccccc3s2)ccc1OCC(=O)N1CCOCC1 | inconclusive: 29.1 µM [activator, single point] |
| O=C(N/N=C/c1ccc([N+](=O)[O-])o1)c1cc(-c2ccncc2)nc2ccccc12 | inconclusive: 6.31 µM [activator, partial curve, poor fit] |
| COc1ccccc1N1CCN(C(=O)CSc2nc(-c3ccco3)cc(C(F)(F)F)n2)CC1 | inconclusive: 29.1 µM [activator, partial curve, poor fit] |
| CCOc1ccccc1NC(=O)Cn1nnc(C(=O)NCc2ccc3c(c2)OCO3)c1N | inconclusive: 14.6 µM [activator, single point] |
| CCOc1ccccc1NC(=S)/C(=C(\[O-])c1ccc2c(c1)OCCO2)[n+]1ccc(CC)cc1 | inconclusive: 29.1 µM [activator, single point] |
| CCOc1ccccc1C1C(C(=O)OC)=CN(C)C=C1C(=O)OC | inconclusive: 4.11 µM [activator, single point] |
| COc1cc(/C=N/NS(=O)(=O)c2ccc(C)c([N+](=O)[O-])c2)ccc1O | inconclusive: 16.4 µM [activator, single point] |
| O=C(Nc1ccc(Oc2ccccc2)nc1)C1CCCCN1Cc1ccco1 (centres undefined) | active: 2.91 µM |
| COc1cc2c(cc1OC)CN(C(C)C(=O)N1CCc3ccccc31)CC2 (centres undefined) | inconclusive: 29.1 µM [activator, single point] |
| O=C1N(C2CCCC2)C[C@@H]2C[C@@H](c3cccn3-c3nccs3)N3CCC[C@@]123 | inactive |
| O=C(CCN1CCCCC1)N1CCc2c([nH]c3ccccc23)C1c1cccnc1 (centres undefined) | inactive |
| CC(Sc1nc2ccccc2n1C)C(=O)NC(c1ccccc1)c1ccccc1 (centres undefined) | inconclusive: 29.1 µM [activator, single point] |
| NNc1nc(-c2ccccc2)cc(-c2ccccc2O)n1 | inconclusive: 29.1 µM [activator, single point] |
| Cc1cc(CNC(=O)c2cccc([N+](=O)[O-])c2)c2ccccc2n1 | inconclusive: 4.61 µM [activator, partial curve, poor fit] |
| Cc1c(C(=O)Nc2cccnc2Cl)oc2ccccc12 | inactive |
| CS(=O)(=O)c1ccc(C(=O)OC2CCOC2=O)cc1[N+](=O)[O-] (centres undefined) | inconclusive: 29.1 µM [activator, single point] |

| Structure (SMILES) | Potency |
| --- | --- |
| Cc1ccccc1NC(=O)Cn1nnc(-c2ccc(CN3CCC(C)CC3)cc2)n1 | inactive |
| CCCN=C1N(C)C[C@@H]2[C@@H]3C(=O)N(Cc4ccccc4)C(=O)[C@@H]3[C@](CC)(C(=O)OC)N12 | inconclusive: 0.651 µM [activator, full curve, poor fit] |
| CC1CC(N(C(=O)c2ccco2)c2ccccc2)c2ccccc2N1C(=O)c1ccco1 (centres undefined) | inconclusive: 23.1 µM [activator, partial curve, poor fit] |
| Cc1oc2c(c1C(=O)c1ccccc1)C(=O)C(=O)c1ccccc1-2 | inconclusive: 29.1 µM [activator, single point] |
| Cc1cccc(N2CCN(C(=S)c3ccc(-c4ccccc4[N+](=O)[O-])o3)CC2)c1 | inconclusive: 29.1 µM [activator, single point] |
| CC(C)(C)N1CC(C(=O)Nc2cccc(Cl)c2Cl)CC1=O (centres undefined) | inactive |
| COc1ccc(O)c(/C=N/NC(=O)CCC(=O)Nc2ccc(C)cc2)c1 | inconclusive: 23.1 µM [activator, single point] |
| CN(C)c1ccc(N=C/C=C2/N(C)c3ccccc3C2(C)C)cc1 | inactive |
| COc1cc(C(=O)Nc2c(C)cc(C)cc2C)c([N+](=O)[O-])cc1OC | inactive |
| CCOc1cc(C=O)cc(Br)c1OCC(N)=O | inconclusive: 29.1 µM [activator, single point] |
| COC(=O)Cc1nc(Nc2ccccc2)sc1C | inconclusive: 2.31 µM [activator, partial curve] |
| CC(C)Oc1ccc(OCCNC2CCCC2)cc1 | inactive |
| CCCCn1nc2cc(C(=O)NCC34CC5CC(CC(C5)C3)C4)ccc2c1OCC | inconclusive: 14.6 µM [activator, partial curve, poor fit] |
| O=C1C(Cc2ccc(Br)cc2)SC(=Nc2ccccc2)N1c1ccccc1 (centres undefined) | inconclusive: 25.9 µM [activator, partial curve, poor fit] |
| Cc1nn(C)c(C)c1C1Nc2ccccc2C(=O)N1O (centres undefined) | inactive |
| c1ccc(Cn2c(CSc3nnnn3-c3ccccc3)nc3ccccc32)cc1 | inconclusive: 32.6 µM [activator, partial curve, poor fit] |
| COc1cc(/C=N/N2CCN(Cc3ccc(C)cc3)CC2)cc(OC)c1O | inconclusive: 2.91 µM [activator, single point] |
| O=S(=O)([N-]c1nc2ccccc2nc1-[n+]1ccccc1)c1ccc(F)cc1 | inactive |
| CCOc1cc(/C=N/NC(=O)Cn2nc([N+](=O)[O-])cc2C)cc(Br)c1OCc1ccccc1F | inconclusive: 29.1 µM [activator, single point] |
| COc1ccc(-c2cn(Cc3ccc([N+](=O)[O-])cc3)nn2)cc1 | inconclusive: 20.6 µM [activator, single point] |

Reference: PubChem BioAssay AID624297 (National Center for Advancing Translational Sciences (NCATS), 2012)
